Results taken from the supplement of paper PMC10470496.
Structures can show the parent of a compound that is named as a salt. The list shows a part of the results. Single values are uncertain, as repeats are few or missing.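 Three clinical Candida auris isolates (clades III, IV and I) from the CDC resistance isolate bank were grown in RPMI-1640 at 35°C. Growth was background-corrected OD600 relative to same-plate vehicle-only wells. Hits required over 50% inhibition in at least two strains and a plate-corrected B-score above 0.1.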

Key:
Assay in all cases: growth relative to vehicle control (OD600 ratio) (fraction); higher = less inhibition
Conditions in all cases: 24 h
C. auris AR-384 = test system: C. auris AR-384
C. auris AR-386 = test system: C. auris AR-386
C. auris AR-387 = test system: C. auris AR-387

SMILES	growth (C. auris AR-384; 1 µM)	growth (C. auris AR-384; 10 µM)	growth (C. auris AR-386; 1 µM)	growth (C. auris AR-386; 10 µM)	growth (C. auris AR-387; 1 µM)	growth (C. auris AR-387; 10 µM)
CC(=O)OC/C=C(C)/C=C/C=C(C)/C=C/C1=C(C)CCCC1(C)C [Vitamin A Acetate]	1.28	0.94	1.34	0.84	1	0.77
CCCC(CCC)C(=O)O [Valproic acid sodium salt (Sodium valproate)]	1.43	1.03	1.1	0.8	0.81	0.91
C[C@@H](CN1CC(=O)NC(=O)C1)N1CC(=O)NC(=O)C1 [Dexrazoxane HCl (ICRF-187, ADR-529)]	1.16	0.85	1.11	1.19	0.83	1.27
CCCN(CCC)CCc1cccc2c1CC(=O)N2 [Ropinirole HCl]	0.8	0.84	0.65	0.96	0.69	0.76
O=[N+]([O-])c1ccc(O)c2ncccc12 [Nitroxoline]	0.8	0.26	0.6	0.08	0.04	0.04
COc1cc(OC)c(/C=C/S(=O)(=O)Cc2ccc(OC)c(NCC(=O)O)c2)c(OC)c1	1.15	1.07	1.29	1.49	0.95	1.11
O=NO [Sodium Nitrite]	0.92	0.82	1.09	0.76	0.73	0.66
CN1CCC(OC(c2ccccc2)c2ccccc2)CC1 [Diphenylpyraline HCl]	1.2	1.3	1.01	1.11	0.99	0.97
CN1CCC[C@H]1c1cccnc1 [Nicotine Ditartrate]	1.08	0.89	0.93	1	0.91	0.92
CCCCCCCCCCCCCCCCOP(=O)([O-])OCC[N+](C)(C)C [Miltefosine]	0.71	0.13	0.98	0.03	1.12	0.63
CCC(C)(C)C(=O)O[C@H]1C[C@@H](C)C=C2C=C[C@H](C)[C@H](CC[C@@H]3C[C@@H](O)CC(=O)O3)[C@H]21 [Simvastatin]	0.81	0.92	0.7	0.91	0.63	0.76
Nc1ccn([C@@H]2CS[C@H](CO)O2)c(=O)n1 [Lamivudine]	0.96	1.04	1.21	1.22	0.93	0.96
C1N2CN3CN1CN(C2)C3 [Methenamine]	0.95	0.99	1.08	1.18	0.86	0.88
COCCc1ccc(OCC(O)CNC(C)C)cc1 (centres undefined) [Metoprolol Tartrate]	0.92	0.92	0.88	1.08	0.69	0.89
CN(C)CCN(Cc1ccccc1)c1ccccn1 [Tripelennamine HCl]	0.98	1.36	1.01	0.91	0.84	1.09
O=c1[nH]c(=O)n(C2CCCO2)cc1F (centres undefined)	1.07	0.67	1.07	1.11	0.9	0.89
CNC(=O)[C@@H](NC(=O)[C@H](CC(C)C)[C@H](O)C(=O)NO)C(C)(C)C [Marimastat (BB-2516)]	1.2	1.46	1.41	1.26	1.58	1.35
COc1cccc(-c2ccc(NC(=O)C3=C(C(=O)O)CCC3)c(F)c2)c1 [Vidofludimus]	1.18	0.97	1.1	0.99	0.75	0.69
CCc1cccc2c3c([nH]c12)C(CC)(CC(=O)O)OCC3 (centres undefined) [Etodolac]	0.79	0.98	1.33	1.2	1.31	1.19
Nc1ccc(S(=O)(=O)NC(=O)c2ccccc2)cc1 [Sulfabenzamide]	0.79	0.98	0.98	0.79	0.65	0.65
CC(C)(Oc1ccc(CCNC(=O)c2ccc(Cl)cc2)cc1)C(=O)O [Bezafibrate]	0.91	0.84	0.92	0.67	0.72	0.7
N=C(N)N [Guanidine HCl]	0.79	0.76	1	0.99	0.94	0.96
O=c1[nH]c2ccccc2n1CCN1CCN(c2cccc(C(F)(F)F)c2)CC1 [Flibanserin]	0.86	0.98	1.04	1.04	0.93	1.08
CC(=O)O[C@@]12CO[C@@H]1C[C@H](O)[C@@]1(C)C(=O)[C@H](O)C3=C(C)[C@@H](OC(=O)[C@H](O)[C@@H](NC(=O)OC(C)(C)C)c4ccccc4)C[C@@](O)([C@@H](OC(=O)c4ccccc4)[C@H]21)C3(C)C [Docetaxel Trihydrate]	0.69	0.63	0.82	0.67	0.69	0.74
CCOC(=O)c1ccc(O)cc1 [Ethylparaben]	0.82	0.71	0.66	1.02	0.72	0.93
CC[C@H]1OC(=O)C[C@@H](O)[C@H](C)[C@@H](O[C@@H]2O[C@H](C)[C@@H](O)[C@H](N(C)C)[C@H]2O)[C@@H](CCN2C[C@H](C)C[C@H](C)C2)C[C@@H](C)C(=O)/C=C/C(C)=C/[C@@H]1CO[C@@H]1O[C@H](C)[C@@H](O)[C@@H](OC)[C@H]1OC [Tilmicosin]	0.82	0.78	1	0.56	0.63	0.69
CNS(=O)(=O)C[C@H]1CC[C@H](N(C)c2[nH]cnc3nccc2-3)CC1 [Oclacitinib maleate]	1.21	1.33	0.93	1.29	1.12	1.21
N=C(N)NC(=O)Cc1c(Cl)cccc1Cl [Guanfacine Hydrochloride]	0.81	0.8	0.93	0.93	0.72	0.88
C[C@]12C=CC(=O)N[C@@H]1CC[C@@H]1[C@@H]2CC[C@]2(C)[C@@H](C(=O)Nc3cc(C(F)(F)F)ccc3C(F)(F)F)CC[C@@H]12 [Dutasteride]	1.44	1.14	1.37	1.31	1.03	1.17

Single records (already shown). Order of values: growth (C. auris AR-384; 1 µM) | growth (C. auris AR-384; 10 µM) | growth (C. auris AR-386; 1 µM) | growth (C. auris AR-386; 10 µM) | growth (C. auris AR-387; 1 µM) | growth (C. auris AR-387; 10 µM)
CN1CCC(OC(c2ccccc2)c2ccccc2)CC1 [Diphenylpyraline HCl] is entered as 1.2 | 1.3 | 1.01 | 1.11 | 0.99 | 0.97
O=NO [Sodium Nitrite] is entered as 0.92 | 0.82 | 1.09 | 0.76 | 0.73 | 0.66
